Assay results: PubChem BioAssay AID590 (National Center for Advancing Translational Sciences (NCATS), 2007)
“And” between values parts separate entries of the source, which are not always exact repeats. Equal values may be shown once. About 6,500 (11%) of roughly 59,000 compounds were called active. Inconclusive means that the source gave no clear call. Such entries were picked first, then a sample of the others. No stated cut-off is given here; in the data, active means max dye-equivalent concentration above about 10 nM; inconclusive means mostly about 1.1 nM to 9.6 nM; inactive means weaker than that.

experiment: qHTS Assay for Spectroscopic Profiling in A350 Spectral Region; details: Compound autofluorescence, 340/450 nm, Alexa 350 dye-equivalents; active compounds read high

Compound | max dye-equivalent concentration
CCN(CC)CCN1C(=O)C(O)=C(C(=O)c2cc3ccccc3o2)C1c1cccnc1 (stereo not drawn) | inconclusive: 1.9e-09 M
Cc1sc2nc(CN(Cc3cccs3)C(=O)C3CC3)[nH]c(=O)c2c1C | inactive
COc1cc(-c2ccc(=O)[nH]n2)ccc1OC(F)F | inconclusive: 3.4e-09 M and inconclusive: 1.2e-09 M
CN(C)CCCNCCCNC(=O)c1ccncc1 | inconclusive: 5e-09 M
COCc1nnc(NS(=O)(=O)c2ccc(C)cc2)s1 | inconclusive: 3.7e-09 M
O=C(Nc1ccc(Nc2ccc3c(c2)C(=O)c2ccccc2C3=O)c2c1C(=O)c1ccccc1C2=O)c1ccccc1 | inactive
CCCCN1c2ccccc2N(CCCO)c2cc(C)nnc21 | inconclusive: 1.4e-09 M
COC(=O)Cn1c2ccc(F)cc2c2nc(C)sc21 | inconclusive: 2e-09 M
NC1=NC(c2ccc(F)cc2)n2c(nc3ccccc32)N1 (stereo not drawn) | inconclusive: 1.3e-09 M
COc1ccc(OC)c2[nH]c(=O)c(CCNC(=O)COc3ccccc3)cc12 | inconclusive: 7e-09 M
CCOc1ccc(S(=O)(=O)N(C)C)cc1-c1nc2c(C(C)(C)C)nn(C)c2c(=O)[nH]1 | active: 1.1e-07 M
Cc1ccc(-c2nnc(-c3ccc4ccccc4c3)o2)cc1 | inconclusive: 5e-09 M
CCOC(=O)C(NC(C)=O)(Nc1cccc(F)c1)C(F)(F)F (stereo not drawn) | inconclusive: 1.3e-09 M
O=C(O)C1CCN(c2nc(-c3ccccc3)nc3c2oc2ccccc23)CC1 | inconclusive: 5.8e-09 M
O=C(O)CCCNCc1ccccc1F | inconclusive: 3.6e-09 M
COC(=O)/C(=C1/Oc2cc3c(cc2S1)OCO3)C(F)(F)F | inconclusive: 4.2e-09 M
Cc1noc(C)c1COc1cccc(C(=O)OCC(=O)N2CC(=O)Nc3ccccc32)c1 | inconclusive: 1.3e-09 M
CCCn1c(N)c(Sc2ccc(Cl)cc2)c(=O)n(CCC)c1=O | inactive
CCc1cc2c(N3CCCCC3)ncnc2s1 | inconclusive: 1.3e-09 M
Cc1cc(C)c2c(N)c(S(=O)(=O)Cc3ccccc3)sc2n1 | active: 1.5e-08 M

Compound | max dye-equivalent concentration
CCOC(=O)c1oc2ccccc2c1CSc1nnnn1-c1ccccc1 | inactive
CN(C)CCNc1ncnc2ccccc12 | inconclusive: 9.2e-09 M
COc1ccc(C(=O)NCCn2ccc3ccccc32)c(OC)c1 | inactive
CCn1c(SCc2nc3ccccc3[nH]2)nnc1-c1ccccc1OC | inconclusive: 6.2e-09 M
Cc1nc2ccccc2c2oc(C(=O)NCC3CCCO3)cc12 (stereo not drawn) | inconclusive: 3.2e-09 M
Cc1ccccc1C1=NC(c2ccc(F)cc2F)ON1 (stereo not drawn) | inconclusive: 4.2e-09 M
O=C(C1CCCCC1)N1CCC(n2nnc3ccccc32)CC1 | inconclusive: 5.6e-09 M
NC(=O)SC/C(=N\S(=O)(=O)c1ccccc1)Nc1ccccc1 | inconclusive: 1.7e-09 M
Cc1ccc(C)n1C(Cc1ccccc1)C(=O)O (stereo not drawn) | active: 1.3e-08 M
COc1ccc2nc3sc(C(=O)NCc4cccs4)c(N)c3cc2c1 | inconclusive: 6.1e-09 M
CCOC(=O)C1CCCN(C(=O)c2cc3c(-c4cccc(OC)c4)nn(C)c3s2)C1 (stereo not drawn) | inactive
Cc1c(C(=O)N2CCOCC2)[nH]c2c1C(=O)CC(c1ccccc1Cl)C2 (stereo not drawn) | inconclusive: 2.2e-09 M
Cc1ccc(-c2nnn(CC(=O)NCCc3ccc4c(c3)OCO4)n2)o1 | inconclusive: 1.7e-09 M
N#Cc1cccc(NC(=O)N2CC3(CCN(C(=O)c4cnccn4)CC3)C2)c1 | inactive
O=C(NCc1ccccc1)N[C@@H](Cc1ccccc1)C(=O)O | active: 1.7e-08 M
CCNc1ncc2nc(-c3ccccc3)c(=O)n(CCc3ccccc3)c2n1 | active: 7.5e-08 M
COC(=O)c1cccc(NC(=O)CSc2nnc(C)n2Cc2ccccc2)c1 | inconclusive: 1.1e-09 M
CSCC[C@H](NC(=O)NCCC1=CCCCC1)C(=O)O | inconclusive: 6.1e-09 M
COc1ccccc1Cn1c(=O)[nH]c2cccnc21 | inconclusive: 1.7e-09 M
COc1ccc(C(=O)CSc2cc(C)nc3nc(C)nn23)cc1OC | inconclusive: 2.4e-09 M

3 compounds picked at random from those above:
Compound | max dye-equivalent concentration
Cc1c(C(=O)N2CCOCC2)[nH]c2c1C(=O)CC(c1ccccc1Cl)C2 (stereo not drawn) | inconclusive: 2.2e-09 M
CN(C)CCNc1ncnc2ccccc12 | inconclusive: 9.2e-09 M
COc1ccc(C(=O)CSc2cc(C)nc3nc(C)nn23)cc1OC | inconclusive: 2.4e-09 M

The list continues.

Compound | max dye-equivalent concentration
Cc1cc(=O)n(CCC(=O)O)c2ccccc12 | inconclusive: 2.3e-09 M
CCCn1nnnc1NCc1ccccc1OCc1cccs1 | inconclusive: 4e-09 M
CS(=O)(=O)N1CCC2(CCCN(C(=O)Nc3cccc(F)c3)C2)CC1 | inactive
COCCNc1nc(-c2ccccc2CN(C)C)nc2ccccc12 | inactive
CN(C)C(=O)CCc1nc(-c2ccc(C(C)(C)C)cc2)no1 | inactive
COc1ccc(-c2cc3nc(C)c(CCC(=O)N4CCCCC4)c(C)n3n2)c(OC)c1 | inconclusive: 3.9e-09 M
O=C(c1ccco1)N1CCN(c2nc(C3CC3)nc3sc4c(c23)CCCC4)CC1 | inconclusive: 4e-09 M
CCCCCn1c(=O)[nH]c2cc(C(=O)NCCN(CC)CC)ccc2c1=O | active: 4e-08 M
CC(C)Cn1c(N2CCN(C(=O)c3cccs3)CC2)nc2ccccc21 | inconclusive: 5.6e-09 M
Cc1cc(NC(=O)c2cnn3c(C(F)F)cc(-c4ccccc4)nc23)no1 | inconclusive: 5.8e-09 M
Cc1ccc(-n2nc3c(c2NC(=O)c2c(-c4ccccc4Cl)noc2C)CSC3)cc1 | inconclusive: 1.8e-09 M
COCCn1nnnc1C(c1cc2cccc(C)c2[nH]c1=O)N1CCN(c2ccccc2F)CC1 (stereo not drawn) | inconclusive: 1.7e-09 M
O=C(O)c1c[nH]c2ccc(S(=O)(=O)N3CCN(c4ccc(F)cc4)CC3)cc2c1=O | inconclusive: 3.8e-09 M
O=C(NCCC(=O)N1CCN(c2ncccn2)CC1)c1ccccc1 | inactive
N=c1oc2c3c4c(cc2cc1C(=O)Nc1ccccc1)CCCN4CCC3 | active: 3.9e-08 M
CCn1cc(/C=C(/C#N)S(=O)(=O)c2ccccc2)cn1 | inconclusive: 1.6e-09 M
Nc1nc(=O)c2[nH]cnc2n1O | inconclusive: 1.9e-09 M
CCOC(=O)Nc1nnc(-c2cccc(OC)c2)s1 | inconclusive: 9.9e-09 M
